Literature values, collected in patent publication US20140249118A1, “TREATMENT OF ORAL LICHEN PLANUS WITH A COMBINATION OF TRIAMCINOLONE AND RETINOIC ACID” (priority 2013, published 2014).
For at least one compound, name, drawing or mass did not settle the structure.

Test system: ulcerative OLP
Conditions: intralesional injection

CC1(C)O[C@@H]2C[C@H]3[C@@H]4CCC5=CC(=O)C=C[C@]5(C)[C@@]4(F)[C@@H](O)C[C@]3(C)[C@]2(C(=O)CO)O1 [triamcinolone acetonide]
patients with complete response in ulceration size: 84.4%
